Among the data in publication PMC11599123 are binding values, retold here.

Protein sequences, listed by entry. Tags and fused reporters are not part of them.
UniProt P61589: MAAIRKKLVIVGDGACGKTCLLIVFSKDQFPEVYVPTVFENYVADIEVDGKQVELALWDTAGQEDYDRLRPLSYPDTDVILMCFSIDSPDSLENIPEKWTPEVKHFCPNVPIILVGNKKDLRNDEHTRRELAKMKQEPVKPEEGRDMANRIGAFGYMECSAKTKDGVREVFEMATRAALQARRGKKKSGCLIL
UniProt P84095: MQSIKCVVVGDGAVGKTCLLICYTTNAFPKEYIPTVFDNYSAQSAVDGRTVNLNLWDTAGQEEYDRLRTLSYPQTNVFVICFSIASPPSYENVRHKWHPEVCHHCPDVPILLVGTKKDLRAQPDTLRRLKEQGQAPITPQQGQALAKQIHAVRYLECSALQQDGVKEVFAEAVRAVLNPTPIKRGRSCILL

No constants are given. Whether binding was seen depends on the method and setting. Some results given as binding are weak or reduced against the parent protein; the word gives no strength. Tags and fused reporters may be left off the sequences shown.

What all share (assay): pull-down; direct binding: GST-Rho GTPases immobilised on glutathione agarose beads, 10 µg purified His6-RhoGDI, 45 min in 1x PBS, 0.5% Triton X-100, 5 mM MgCl2; immunoblot; both purified
The target in one test is GST-tagged RhoA (UniProt P61589).
In the next test the target is GST-tagged RhoG (UniProt P84095).
In another test the target is GST-tagged Cdc42, Q8CFN2. Conditions: remark: other sources report otherwise.

B1: His6-tagged RhoGDI1 (protein, UniProt Q5XI73 1-204)
chain: MAEQEPTAEQLAQIAAENEEDEHSVNYKPPAQKSIQEIQELDKDDESLRKYKEALLGRVAVSADPNVPNVIVTRLTLVCSTAPGPLELDLTGDLESFKKQSFVLKEGVEYRIKISFRVNREIVSGMKYIQHTYRKGVKIDKTDYMVGSYGPRAEEYEFLTPMEEAPKGMLARGSYNIKSRFTDDDKTDHLSWEWNLTIKKEWKD
B1: the binding result with GST-tagged RhoA and with GST-tagged RhoG was “binds” each time.

B2: His6-tagged RhoGDI1, Q5XI73 1-204 (protein)
chain: MAEQEPTAEQLAQIAAENEEDEHSVNYKPPAQKSIQEIQELDKDDESLRKYKEALLGRVAVSADPNVPNVIVTRLTLVCSTAPGPLELDLTGDLESFKKQSFVLKEGVEYRIKISFRVNREIVSGMKYIQHTYRKGVKIDKTDYMVGSYGPRAEEYEFLTPMEEAPKGMLARGSYNIKSRFTDDDKTDHLSWEWNLTIKKEWKD
With B2, the binding result with GST-tagged Cdc42, Q8CFN2 was “binds”.
